The list does not hold the whole screen: it gathers tests that were run many times, whatever their T/C, doses with no T/C, and many T/C values between a quarter and a half above the control. Other doses and runs of a compound stand elsewhere. T/C: endpoint of the treated group in % of that of the vehicle group. Schedules are NCI's codes, read here as Q, the interval in days (D) or hours (H), X, the number of doses. Some T/C values are negative: the treated tumours shrank. Some T/C values carry the count of animals alive at the toxicity check (mostly the fifth day); where none is given, no animal had died by that day. Some entries hold several experiments; the results are listed from low to high. Signs of the kind (2×) stand for listed records that agree. Some entries give survivors of the animals treated and no T/C: the source files T/C as zero there, which appears to mark a toxic dose or a test without result, not a measured value. Survivors were counted at the toxicity check, usually on the fifth day, unless a day is given; later deaths do not show.
Test system: MX-1 breast xenograft, nude mice, tumor weight T/C
Test: NCI In Vivo Anticancer Drug Screen. Data for tumor model Human Mammary Carcinoma MX-1 Xenograft (intrarenal inoculation) in NU/NU Swiss (nude) mice
Details: T/C endpoint: mean tumor weight change, higher T/C = larger tumour; for T/C: evaluated on day 11
Summary of the method: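 Activity is given as a ratio, with each measurement in the compound-treated arm divided by the matching measurement in vehicle-dosed controls. Tumour size or survival serves as the measured parameter.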

[1] = dose: 8.0 mg/kg/injection, schedule: Q04DX003 (sc), vehicle: saline + alcohol
[2] = dose: 100.0 mg/kg/injection, schedule: Q01DX010 (sc), vehicle: saline
[3] = dose: 200.0 mg/kg/injection, schedule: Q01DX010 (sc), vehicle: saline

In the case of `COC12[C@@H]3N[C@@H]3CN1C1=C(C(=O)C(NCCSSCCNC3=C(C)C(=O)C4=C(C3=O)C(COC(N)=O)[C@]3(OC)C5N[C@@H]5CN43)=C(C)C1=O)[C@@H]2COC(N)=O` (stereo partly drawn), the survivor count (dose: 12.5 mg/kg/injection, schedule: Q04DX003 (ip), vehicle: DMSO) is reported as 2 of 6 on day 11, the survivor count (dose: 25.0 mg/kg/injection, schedule: Q04DX003 (ip), vehicle: DMSO) is reported as 0 of 6 on day 11 and the survivor count (dose: 50.0 mg/kg/injection, schedule: Q04DX003 (ip), vehicle: DMSO) is reported as 0 of 6 on day 11.

With `Nc1ccn([C@@H](C=O)O[C@@H](C=O)CO)c(=O)n1` the survivor count (dose: 400.0 mg/kg/injection, schedule: Q01DX010 (sc), vehicle: suspension in saline) was 0 of 3 on day 11 and the survivor count (dose: 800.0 mg/kg/injection, schedule: Q01DX010 (sc), vehicle: suspension in saline) was 0 of 3 on day 11.

For `O=C(NC(Cc1ccc(I)cc1)C(=O)O)c1ccc(Br)cc1` (stereo not drawn), the survivor count (dose: 150.0 mg/kg/injection, schedule: Q04DX003 (ip), vehicle: sodium bicarbonate) was 1 of 6 on day 11, the survivor count (dose: 300.0 mg/kg/injection, schedule: Q04DX003 (ip), vehicle: sodium bicarbonate) was 0 of 6 on day 11 and the survivor count (dose: 600.0 mg/kg/injection, schedule: Q04DX003 (ip), vehicle: sodium bicarbonate) was 0 of 6 on day 11.

With `CCCCCCCCCCCCCCC/C([O-])=N/[N+](C)(C)CC(C)O` (stereo not drawn) the T/C (dose: 400.0 mg/kg/injection, schedule: Q04DX003 (sc), vehicle: Klucel (hydroxypropylcellulose) (HPC)) was 144 % of control and the T/C (dose: 1200.0 mg/kg/injection, schedule: Q04DX003 (sc), vehicle: Klucel (hydroxypropylcellulose) (HPC)) was 143 % of control.

With `OCC1OC(n2cnc3c2NC=NC[C@H]3O)CC1O` (stereo partly drawn) the survivor count (dose: 4.0 mg/kg/injection, schedule: Q01DX010 (sc), vehicle: water) was 1 of 3 on day 11.

In the case of `c1ccc([Te][Te]c2ccccc2)cc1`, the survivor count (dose: 600.0 mg/kg/injection, schedule: Q04DX003 (ip), vehicle: saline with Tween-80) is reported as 0 of 6 on day 11.

`NC(=O)c1cn(C2OC(CO)C(O)C2O)c2ncnc(N)c12` (stereo not drawn) was tested, and the survivor count (dose: 12.0 mg/kg/injection, schedule: Q04DX003 (sc), vehicle: saline) was 1 of 6 on day 11.

For `CCNC(=O)[B-][N+](C)(C)C`, the survivor count (dose: 800.0 mg/kg/injection, schedule: Q04DX003 (sc), vehicle: Klucel (hydroxypropylcellulose) (HPC)) was 0 of 6 on day 11.

In the case of `COc1cccc2c1C(=O)c1c(O)c3c(c(O)c1C2=O)C[C@@](O)(C(C)=O)C[C@@H]3OC1CC(N(C)C)C(O)C(C)O1` (stereo partly drawn), the survivor count (dose: 8.0 mg/kg/injection, schedule: Q01DX010 (sc), vehicle: water) is reported as 0 of 3 on day 11 and the survivor count (dose: 16.0 mg/kg/injection, schedule: Q01DX010 (sc), vehicle: water) is reported as 0 of 3 on day 11.

For `COc1cccc2c1C(=O)c1c(O)c3c(c(O)c1C2=O)C[C@@](O)(C(=O)CO)C[C@@H]3OC1CC(N)C(OC)C(C)O1` (stereo partly drawn), the survivor count (dose: 3.0 mg/kg/injection, schedule: Q01DX010 (sc), vehicle: saline) was 0 of 3 on day 11, the survivor count (dose: 6.0 mg/kg/injection, schedule: Q01DX010 (sc), vehicle: saline) was 0 of 3 on day 11 and the survivor count (dose: 12.0 mg/kg/injection, schedule: Q01DX010 (sc), vehicle: saline) was 0 of 3 on day 11.

`Nc1n[n+](-c2ccccc2)no1` was tested, and the survivor count (dose: 150.0 mg/kg/injection, schedule: Q04DX003 (sc), vehicle: water) was 1 of 6 on day 11.

With `O=C(CCBr)N1CCN(C(=O)CCBr)CC1` the survivor count (dose: 50.0 mg/kg/injection, schedule: Q01DX010 (sc), vehicle: Klucel (hydroxypropylcellulose) (HPC)) was 0 of 3 on day 11, the survivor count (dose: 72.0 mg/kg/injection, schedule: Q01DX010 (sc), vehicle: Klucel (hydroxypropylcellulose) (HPC)) was 3 of 6 on day 11 and the survivor count (dose: 100.0 mg/kg/injection, schedule: Q01DX010 (sc), vehicle: Klucel (hydroxypropylcellulose) (HPC)) was 0 of 3 on day 11.

For `CCN(Cc1ccc(Cl)c(Cl)c1)c1ccc2nc(N)nc(N)c2c1C`, the survivor count (dose: 37.5 mg/kg/injection, schedule: Q04DX003 (sc), vehicle: distilled water + Tween-80) was 3 of 6 on day 11 and the survivor count (dose: 75.0 mg/kg/injection, schedule: Q04DX003 (sc), vehicle: distilled water + Tween-80) was 0 of 6 on day 11.

In the case of `C=C1C(=O)C23[C@H](O)C1CC[C@H]2[C@]12COC3(O)[C@@H](O)[C@@H]1C(C)(C)CC[C@@H]2O`, the survivor count (dose: 50.0 mg/kg/injection, schedule: Q04DX003 (sc), vehicle: Klucel (hydroxypropylcellulose) (HPC)) is reported as 1 of 5 on day 11 and the survivor count (dose: 100.0 mg/kg/injection, schedule: Q04DX003 (sc), vehicle: Klucel (hydroxypropylcellulose) (HPC)) is reported as 0 of 6 on day 11.

With `COc1cccc2c1C(=O)c1c(O)c3c(c(O)c1C2=O)C[C@@](O)(/C(C)=N/NC(=O)c1cccc([N+](=O)[O-])c1)C[C@@H]3OC1CC(N)C(O)C(C)O1` (stereo partly drawn) the survivor count (dose: 32.0 mg/kg/injection, schedule: Q01DX010 (sc), vehicle: water) was 1 of 3 on day 11.

In the case of `O=C1c2ccccc2C(=O)c2c(NCCNCCO)ccc(O)c21`, the T/C (dose: 12.5 mg/kg/injection, schedule: Q04DX003 (sc), vehicle: suspension in saline) is reported as 125 % of control and the T/C (dose: 50.0 mg/kg/injection, schedule: Q04DX003 (sc), vehicle: suspension in saline) is reported as 127 % of control.

In the case of `C=C(C(=O)O)C(N)C(=O)O` (stereo not drawn), the survivor count (dose: 2400.0 mg/kg/injection, schedule: Q04DX003 (sc), vehicle: suspension in saline) is reported as 0 of 6 on day 11.

`O=C(O)/C=C/C(=O)Nc1ccc(Cl)c(Cl)c1` was tested, and the T/C (dose: 200.0 mg/kg/injection, schedule: Q04DX003 (sc), vehicle: Klucel (hydroxypropylcellulose) (HPC)) was 127 % of control.

With `COc1nc(=O)n(C2C=CC(=O)O2)cc1F` (stereo not drawn) the survivor count (dose: 150.0 mg/kg/injection, schedule: Q04DX003 (sc), vehicle: Klucel (hydroxypropylcellulose) (HPC)) was 0 of 6 on day 11, the survivor count (dose: 300.0 mg/kg/injection, schedule: Q04DX003 (sc), vehicle: Klucel (hydroxypropylcellulose) (HPC)) was 0 of 6 on day 11 and the survivor count (dose: 600.0 mg/kg/injection, schedule: Q04DX003 (sc), vehicle: Klucel (hydroxypropylcellulose) (HPC)) was 0 of 6 on day 11.

For `O=NNc1ccc(Cl)cn1`, the survivor count (dose: 75.0 mg/kg/injection, schedule: Q04DX003 (ip), vehicle: water) was 0 of 6 on day 11 and the survivor count (dose: 150.0 mg/kg/injection, schedule: Q04DX003 (ip), vehicle: water) was 0 of 6 on day 11.

For `COC1/C=C/C=C(/C)Cc2cc(O)c(Cl)c(c2)N(C)C(=O)CC(OC(=O)C(C)C)C2(C)OC2C(C)C2CC1(O)NC(=O)O2` (stereo not drawn), the T/C (dose: 4.0 mg/kg/injection, schedule: Q04DX003 (sc), vehicle: saline + alcohol) was 17, 25, 43, 59 % of control, the T/C [1] was 4 [4 of 6 alive on day 11], 6, 63 % of control and the survivor count [1] was 3 of 6 on day 11. The survivor count (dose: 16.0 mg/kg/injection, schedule: Q04DX003 (sc), vehicle: saline + alcohol) was 1 of 6 on day 11 and the survivor count (dose: 32.0 mg/kg/injection, schedule: Q04DX003 (sc), vehicle: saline + alcohol) was 0 of 6 on day 11.

In the case of `CNC(=O)ON(C(C)=O)C(=O)NC`, the T/C (dose: 12.5 mg/kg/injection, schedule: Q01DX010 (sc), vehicle: saline) is reported as 142 % of control, the T/C (dose: 25.0 mg/kg/injection, schedule: Q01DX010 (sc), vehicle: saline) is reported as 9, 72, 81, 89, 106 % of control and the T/C (dose: 50.0 mg/kg/injection, schedule: Q01DX010 (sc), vehicle: saline) is reported as -38, 2, 26, 31, 90 % of control [2 of 2 alive on day 11]. The T/C (dose: 50.0 mg/kg/injection, schedule: Q04DX003 (sc), vehicle: saline) was 139 % of control, the T/C [2] was -39, 1 (2×), 4 % of control and the survivor count [2] was 1 of 3 on day 11. For the same molecule, the survivor count (dose: 150.0 mg/kg/injection, schedule: Q01DX010 (sc), vehicle: water) was 0 of 3 on day 11, the T/C [3] was 2 % of control [5 of 6 alive on day 11] and the survivor count [3] was 0 of 6 on day 11, 0 of 8 on day 11, 1 of 3 on day 11. For the same molecule, the survivor count (dose: 200.0 mg/kg/injection, schedule: Q01DX010 (sc), vehicle: water) was 0 of 3 on day 11 and the survivor count (dose: 200.0 mg/kg/injection, schedule: Q04DX003 (sc), vehicle: saline) was 2 of 6 on day 11.
